PubChem BioAssay AID1259308 | NCATS, 2017
Purpose: 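Genes whose loss raises luciferase production in HEK293 cells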 (primary screen). Cells: human HEK293 embryonic kidney cells stably expressing firefly luciferase (HEK-CMV-Luc2-Hygro). Reagent: single siRNA against human genes, 0.8 pmol siRNA per well. Duration: 72 h. Measured: 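Luciferase light (ONE-Glo) measured on one replicate plate set and viability (CellTiter-Glo) on the other, scaled to a negative control siRNA, with robust z-scores and luciferase per cell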. Scale: total luciferase, z-score and total luciferase, % of control: higher = more reporter protein produced; luciferase per cell, z-score: higher = more reporter output per viable cell; viable cells, % of control: higher = more viable cells. Active means: 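An siRNA counts as active if its total luciferase robust z-score exceeds 3; genes with two or more such siRNAs out of three were retested with fresh siRNAs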. Calls: active = raised luciferase; inactive = no rise.
Shown is a random part of about 59,000 reagents tested. Of all reagents, about 1,510 (2.6%) are marked active. 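Calls use total luciferase alone and ignore viability, so some active siRNAs may act by altering cell number.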 Unmarked entries are inactive. Reagents against one gene are numbered here.

| gene knocked down | reagent no. | total luciferase, z-score | total luciferase, % of control | luciferase per cell, z-score | viable cells, % of control |
| --- | --- | --- | --- | --- | --- |
| MDK (midkine) | 1 | -0.181 | 78.3 | -0.0928 | 89.6 |
| MDK (midkine) | 2 | -0.017 | 81.5 | -0.422 | 102 |
| MDK (midkine) | 3 | 0.0749 | 83.4 | -0.225 | 98.8 |
| MYLK (myosin light chain kinase) | 1 | -0.423 | 73.5 | 0.228 | 77.3 |
| MYLK (myosin light chain kinase) | 2 | -0.991 | 62.2 | -0.863 | 87.2 |
| MYLK (myosin light chain kinase) | 3 | -0.3 | 75.9 | -0.939 | 109 |
| DGUOK (deoxyguanosine kinase) | 1 | -0.168 | 78.5 | 1.27 | 62.8 |
| DGUOK (deoxyguanosine kinase) | 2 | -1.77 | 46.6 | -1.86 | 85 |
| DGUOK (deoxyguanosine kinase) | 3 | -0.846 | 65.1 | -1.32 | 103 |
| DCAF12L2 (DDB1 and CUL4 associated factor 12 like 2) | 1 | -0.383 | 74.3 | -0.689 | 99.5 |
| DCAF12L2 (DDB1 and CUL4 associated factor 12 like 2) | 2 | -0.378 | 74.4 | 0.723 | 68.7 |
| DCAF12L2 (DDB1 and CUL4 associated factor 12 like 2) | 3 | 0.16 | 85.1 | 0.247 | 89.1 |
| SERPINB3 (serpin family B member 3) | 1 | -1.74 | 47.4 | -1.59 | 80.5 |
| SERPINB3 (serpin family B member 3) | 2 | -0.828 | 65.4 | -1.02 | 95.6 |
| SERPINB3 (serpin family B member 3) | 3 | 1.13 | 104 | 2.1 | 67.2 |
| UBALD2 (UBA like domain containing 2) | 1 | 0.921 | 100 | 0.849 | 89.5 |
| UBALD2 (UBA like domain containing 2) | 2 | -1.39 | 54.3 | -1.33 | 86.2 |
| UBALD2 (UBA like domain containing 2) | 3 | -0.0388 | 81.1 | 0.482 | 79.8 |
| PLCL1 (phospholipase C like 1 (inactive)) | 1 | 0.158 | 85 | 0.245 | 89.1 |
| PLCL1 (phospholipase C like 1 (inactive)) | 2 | 0.117 | 84.2 | -0.893 | 119 |
| PLCL1 (phospholipase C like 1 (inactive)) | 3 | -0.688 | 68.2 | -0.69 | 91.4 |
| ZNF704 (zinc finger protein 704) | 1 | 0.998 | 102 | 0.927 | 89.1 |
| ZNF704 (zinc finger protein 704) | 2 | 0.887 | 99.5 | 1.45 | 75.9 |
| ZNF704 (zinc finger protein 704) | 3 | 2.82 | 138 | 2.39 | 82.1 |
| OVGP1 (oviductal glycoprotein 1) | 1 | -0.565 | 70.6 | -0.158 | 82.3 |
| OVGP1 (oviductal glycoprotein 1) | 2 | 0.0924 | 83.7 | 0.622 | 79.4 |
| OVGP1 (oviductal glycoprotein 1) | 3 | -1.55 | 51.1 | -1.12 | 76.6 |
| POLD4 (DNA polymerase delta 4, accessory subunit) | 1 | -2.05 | 41 | -1.78 | 73.3 |
| POLD4 (DNA polymerase delta 4, accessory subunit) | 2 | -1.26 | 56.9 | -1.59 | 96.6 |
| POLD4 (DNA polymerase delta 4, accessory subunit) | 3 | -0.326 | 75.4 | -0.757 | 103 |
| TARS2 (threonyl-tRNA synthetase 2, mitochondrial) | 1 | 0.236 | 86.6 | -0.0504 | 98 |
| TARS2 (threonyl-tRNA synthetase 2, mitochondrial) | 2 | -0.0328 | 81.2 | -0.0784 | 92.7 |
| TARS2 (threonyl-tRNA synthetase 2, mitochondrial) | 3 | -0.442 | 73.1 | -0.43 | 91.5 |
| RPL13AP6 (ribosomal protein L13a pseudogene 6) | 1 | -2.58 | 30.6 | -2.73 | 70 |
| RPL13AP6 (ribosomal protein L13a pseudogene 6) | 2 | 1.97 | 121 | 1.47 | 91.9 |
| RPL13AP6 (ribosomal protein L13a pseudogene 6) | 3 | -0.067 | 80.6 | 2.11 | 51.6 |
| ARAP2 (ArfGAP with RhoGAP domain, ankyrin repeat and PH domain 2) | 1 | -0.559 | 70.8 | -0.967 | 102 |
| ARAP2 (ArfGAP with RhoGAP domain, ankyrin repeat and PH domain 2) | 2 | -1.15 | 59 | -1.58 | 100 |
| ARAP2 (ArfGAP with RhoGAP domain, ankyrin repeat and PH domain 2) | 3 | 0.0464 | 82.8 | -0.166 | 96.7 |
| CKS1BP6 (CDC28 protein kinase regulatory subunit 1B pseudogene 6) | 1 | 3.02 (active) | 142 | 1.94 | 95.2 |
| CKS1BP6 (CDC28 protein kinase regulatory subunit 1B pseudogene 6) | 2 | 1.16 | 105 | 1.57 | 77.6 |
| CKS1BP6 (CDC28 protein kinase regulatory subunit 1B pseudogene 6) | 3 | -2.73 | 27.6 | -2.03 | 52.6 |
| BRAP (BRCA1 associated protein) | 1 | 0.0795 | 83.5 | -0.0507 | 94.5 |
| BRAP (BRCA1 associated protein) | 2 | 0.837 | 98.5 | 0.0202 | 110 |
| BRAP (BRCA1 associated protein) | 3 | 0.0386 | 82.7 | -0.333 | 101 |
| MT1F (metallothionein 1F) | 1 | 0.0125 | 82.1 | 0.783 | 74.7 |
| MT1F (metallothionein 1F) | 2 | 2.38 | 129 | 1.85 | 88.8 |
| MT1F (metallothionein 1F) | 3 | -0.431 | 73.3 | -0.598 | 95.9 |
| ELOVL7 (ELOVL fatty acid elongase 7) | 1 | 1.12 | 104 | 0.916 | 91.4 |
| ELOVL7 (ELOVL fatty acid elongase 7) | 2 | 1.28 | 107 | 0.603 | 102 |
| ELOVL7 (ELOVL fatty acid elongase 7) | 3 | -0.322 | 75.5 | -0.235 | 89.7 |
| ACVR1 (activin A receptor type 1) | 1 | 0.352 | 88.9 | -0.0756 | 101 |
| ACVR1 (activin A receptor type 1) | 2 | 2.57 | 133 | 1.31 | 105 |
| ACVR1 (activin A receptor type 1) | 3 | 0.401 | 89.9 | -0.423 | 112 |
| UBE4A (ubiquitination factor E4A) | 1 | -0.634 | 69.3 | -0.934 | 99 |
| UBE4A (ubiquitination factor E4A) | 2 | 1.16 | 105 | 1.5 | 79.2 |
| UBE4A (ubiquitination factor E4A) | 3 | 0.0448 | 82.8 | 0.134 | 89.3 |

Reagents above called active:
| gene knocked down | reagent no. | total luciferase, z-score | total luciferase, % of control | luciferase per cell, z-score | viable cells, % of control |
| --- | --- | --- | --- | --- | --- |
| CKS1BP6 (CDC28 protein kinase regulatory subunit 1B pseudogene 6) | 1 | 3.02 (active) | 142 | 1.94 | 95.2 |
